In this experiment the target is Stromal interaction molecule 1 (human (endogenous in platelets)) (UniProt Q13586). In words: affinity purification with mass spectrometry; STIM1 immunoprecipitated with an antibody to its C-terminus from human platelets (1 x 10^9 cells/ml) treated with TG for 1 min and lysed in RIPA lysis buffer; 5-15% gradient SDS-PAGE, in-gel trypsin digestion, LC-MS/MS; proteins with 2 or more peptides listed.

The chains behind the UniProt entries cited, without tags or fusion partners. Residues count along the entry.
UniProt Q13586, residues 23-685: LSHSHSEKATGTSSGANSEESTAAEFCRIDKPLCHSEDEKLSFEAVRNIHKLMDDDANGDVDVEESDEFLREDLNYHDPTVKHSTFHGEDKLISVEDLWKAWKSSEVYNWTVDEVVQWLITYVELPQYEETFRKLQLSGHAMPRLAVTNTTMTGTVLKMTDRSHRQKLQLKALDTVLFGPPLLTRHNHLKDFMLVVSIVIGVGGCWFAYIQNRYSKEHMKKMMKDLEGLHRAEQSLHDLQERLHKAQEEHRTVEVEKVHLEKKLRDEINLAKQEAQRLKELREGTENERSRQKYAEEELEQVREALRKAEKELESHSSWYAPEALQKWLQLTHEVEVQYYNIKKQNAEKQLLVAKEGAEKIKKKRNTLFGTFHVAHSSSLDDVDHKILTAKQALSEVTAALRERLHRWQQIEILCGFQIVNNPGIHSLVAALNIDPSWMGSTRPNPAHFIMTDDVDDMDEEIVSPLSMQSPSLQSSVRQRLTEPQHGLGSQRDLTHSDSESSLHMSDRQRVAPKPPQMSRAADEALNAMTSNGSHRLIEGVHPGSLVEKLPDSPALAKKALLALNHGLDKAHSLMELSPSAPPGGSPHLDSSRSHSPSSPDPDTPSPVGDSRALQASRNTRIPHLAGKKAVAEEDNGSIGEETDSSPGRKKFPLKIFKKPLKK
UniProt P07996, residues 19-1170: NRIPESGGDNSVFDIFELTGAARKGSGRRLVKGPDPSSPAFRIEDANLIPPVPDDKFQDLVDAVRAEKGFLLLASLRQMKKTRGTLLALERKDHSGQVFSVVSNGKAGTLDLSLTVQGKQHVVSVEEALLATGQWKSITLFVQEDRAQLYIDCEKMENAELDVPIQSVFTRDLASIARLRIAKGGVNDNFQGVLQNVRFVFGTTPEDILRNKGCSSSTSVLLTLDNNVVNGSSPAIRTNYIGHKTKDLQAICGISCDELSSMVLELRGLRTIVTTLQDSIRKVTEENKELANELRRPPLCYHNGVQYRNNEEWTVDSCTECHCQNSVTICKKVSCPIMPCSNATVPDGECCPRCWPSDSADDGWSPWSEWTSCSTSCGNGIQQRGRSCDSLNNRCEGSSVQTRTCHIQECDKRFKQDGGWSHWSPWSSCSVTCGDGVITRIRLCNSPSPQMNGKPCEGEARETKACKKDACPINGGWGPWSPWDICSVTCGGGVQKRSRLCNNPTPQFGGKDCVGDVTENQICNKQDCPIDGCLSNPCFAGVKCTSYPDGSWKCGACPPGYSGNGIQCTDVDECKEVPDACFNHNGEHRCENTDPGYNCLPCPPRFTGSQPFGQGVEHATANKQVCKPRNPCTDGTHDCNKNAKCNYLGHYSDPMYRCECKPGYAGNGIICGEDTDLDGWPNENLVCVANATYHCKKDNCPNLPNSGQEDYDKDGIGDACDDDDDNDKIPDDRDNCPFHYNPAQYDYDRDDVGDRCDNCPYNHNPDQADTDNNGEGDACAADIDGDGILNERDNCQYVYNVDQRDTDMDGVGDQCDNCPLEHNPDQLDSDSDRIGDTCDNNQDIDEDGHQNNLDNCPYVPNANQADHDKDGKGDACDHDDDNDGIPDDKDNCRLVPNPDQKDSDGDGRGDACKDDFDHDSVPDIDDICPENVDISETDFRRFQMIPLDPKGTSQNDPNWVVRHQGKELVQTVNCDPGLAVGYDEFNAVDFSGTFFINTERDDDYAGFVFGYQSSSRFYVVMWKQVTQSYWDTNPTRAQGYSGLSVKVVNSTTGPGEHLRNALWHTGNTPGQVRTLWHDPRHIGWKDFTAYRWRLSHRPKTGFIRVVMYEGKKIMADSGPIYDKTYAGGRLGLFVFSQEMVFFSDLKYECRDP
UniProt P35579: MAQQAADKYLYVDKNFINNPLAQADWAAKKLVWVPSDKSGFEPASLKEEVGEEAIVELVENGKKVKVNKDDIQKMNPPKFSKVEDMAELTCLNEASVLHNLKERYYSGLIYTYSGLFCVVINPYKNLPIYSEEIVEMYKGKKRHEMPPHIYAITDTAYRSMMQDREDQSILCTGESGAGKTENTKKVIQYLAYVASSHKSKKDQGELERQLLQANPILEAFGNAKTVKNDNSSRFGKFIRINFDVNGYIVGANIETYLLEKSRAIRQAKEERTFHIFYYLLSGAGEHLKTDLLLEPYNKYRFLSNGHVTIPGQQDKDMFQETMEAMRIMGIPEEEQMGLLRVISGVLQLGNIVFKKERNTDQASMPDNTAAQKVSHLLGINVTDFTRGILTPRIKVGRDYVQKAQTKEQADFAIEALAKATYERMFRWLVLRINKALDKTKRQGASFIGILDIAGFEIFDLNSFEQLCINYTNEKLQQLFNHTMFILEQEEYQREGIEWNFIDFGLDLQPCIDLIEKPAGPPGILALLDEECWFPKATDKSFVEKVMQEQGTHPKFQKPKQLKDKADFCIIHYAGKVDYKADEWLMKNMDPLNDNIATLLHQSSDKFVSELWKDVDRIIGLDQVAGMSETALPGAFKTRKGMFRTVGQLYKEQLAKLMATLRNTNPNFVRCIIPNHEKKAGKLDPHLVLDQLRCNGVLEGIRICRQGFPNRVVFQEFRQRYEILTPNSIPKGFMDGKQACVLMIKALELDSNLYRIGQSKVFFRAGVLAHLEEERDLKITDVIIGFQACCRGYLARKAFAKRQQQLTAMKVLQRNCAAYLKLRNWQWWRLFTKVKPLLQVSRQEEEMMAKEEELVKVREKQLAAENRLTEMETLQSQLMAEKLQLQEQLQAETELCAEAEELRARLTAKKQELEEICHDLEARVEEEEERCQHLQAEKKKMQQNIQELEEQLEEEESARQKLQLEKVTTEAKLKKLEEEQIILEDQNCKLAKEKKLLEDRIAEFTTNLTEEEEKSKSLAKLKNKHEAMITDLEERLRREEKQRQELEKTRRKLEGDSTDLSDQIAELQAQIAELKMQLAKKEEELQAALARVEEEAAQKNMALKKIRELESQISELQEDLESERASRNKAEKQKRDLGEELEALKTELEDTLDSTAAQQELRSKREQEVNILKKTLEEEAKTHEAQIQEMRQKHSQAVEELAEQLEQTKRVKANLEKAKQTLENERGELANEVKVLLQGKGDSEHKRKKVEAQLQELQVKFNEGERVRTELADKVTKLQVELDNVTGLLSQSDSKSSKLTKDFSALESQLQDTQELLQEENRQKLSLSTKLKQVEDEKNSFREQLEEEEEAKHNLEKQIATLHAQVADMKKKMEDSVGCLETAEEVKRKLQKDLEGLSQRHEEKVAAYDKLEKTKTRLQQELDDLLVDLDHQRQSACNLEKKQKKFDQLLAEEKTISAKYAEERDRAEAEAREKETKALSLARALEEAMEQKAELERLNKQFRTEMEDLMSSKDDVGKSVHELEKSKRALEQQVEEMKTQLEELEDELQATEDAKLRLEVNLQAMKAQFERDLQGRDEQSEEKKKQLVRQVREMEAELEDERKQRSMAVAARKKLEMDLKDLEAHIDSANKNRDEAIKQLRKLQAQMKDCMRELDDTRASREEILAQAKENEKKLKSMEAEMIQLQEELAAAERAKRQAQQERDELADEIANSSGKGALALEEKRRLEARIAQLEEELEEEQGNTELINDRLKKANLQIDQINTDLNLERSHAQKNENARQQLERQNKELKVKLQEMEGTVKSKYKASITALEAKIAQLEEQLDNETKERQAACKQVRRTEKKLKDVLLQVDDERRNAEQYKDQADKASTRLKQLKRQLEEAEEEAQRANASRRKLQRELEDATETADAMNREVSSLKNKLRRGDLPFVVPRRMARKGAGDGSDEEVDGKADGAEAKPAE
UniProt Q96BY6: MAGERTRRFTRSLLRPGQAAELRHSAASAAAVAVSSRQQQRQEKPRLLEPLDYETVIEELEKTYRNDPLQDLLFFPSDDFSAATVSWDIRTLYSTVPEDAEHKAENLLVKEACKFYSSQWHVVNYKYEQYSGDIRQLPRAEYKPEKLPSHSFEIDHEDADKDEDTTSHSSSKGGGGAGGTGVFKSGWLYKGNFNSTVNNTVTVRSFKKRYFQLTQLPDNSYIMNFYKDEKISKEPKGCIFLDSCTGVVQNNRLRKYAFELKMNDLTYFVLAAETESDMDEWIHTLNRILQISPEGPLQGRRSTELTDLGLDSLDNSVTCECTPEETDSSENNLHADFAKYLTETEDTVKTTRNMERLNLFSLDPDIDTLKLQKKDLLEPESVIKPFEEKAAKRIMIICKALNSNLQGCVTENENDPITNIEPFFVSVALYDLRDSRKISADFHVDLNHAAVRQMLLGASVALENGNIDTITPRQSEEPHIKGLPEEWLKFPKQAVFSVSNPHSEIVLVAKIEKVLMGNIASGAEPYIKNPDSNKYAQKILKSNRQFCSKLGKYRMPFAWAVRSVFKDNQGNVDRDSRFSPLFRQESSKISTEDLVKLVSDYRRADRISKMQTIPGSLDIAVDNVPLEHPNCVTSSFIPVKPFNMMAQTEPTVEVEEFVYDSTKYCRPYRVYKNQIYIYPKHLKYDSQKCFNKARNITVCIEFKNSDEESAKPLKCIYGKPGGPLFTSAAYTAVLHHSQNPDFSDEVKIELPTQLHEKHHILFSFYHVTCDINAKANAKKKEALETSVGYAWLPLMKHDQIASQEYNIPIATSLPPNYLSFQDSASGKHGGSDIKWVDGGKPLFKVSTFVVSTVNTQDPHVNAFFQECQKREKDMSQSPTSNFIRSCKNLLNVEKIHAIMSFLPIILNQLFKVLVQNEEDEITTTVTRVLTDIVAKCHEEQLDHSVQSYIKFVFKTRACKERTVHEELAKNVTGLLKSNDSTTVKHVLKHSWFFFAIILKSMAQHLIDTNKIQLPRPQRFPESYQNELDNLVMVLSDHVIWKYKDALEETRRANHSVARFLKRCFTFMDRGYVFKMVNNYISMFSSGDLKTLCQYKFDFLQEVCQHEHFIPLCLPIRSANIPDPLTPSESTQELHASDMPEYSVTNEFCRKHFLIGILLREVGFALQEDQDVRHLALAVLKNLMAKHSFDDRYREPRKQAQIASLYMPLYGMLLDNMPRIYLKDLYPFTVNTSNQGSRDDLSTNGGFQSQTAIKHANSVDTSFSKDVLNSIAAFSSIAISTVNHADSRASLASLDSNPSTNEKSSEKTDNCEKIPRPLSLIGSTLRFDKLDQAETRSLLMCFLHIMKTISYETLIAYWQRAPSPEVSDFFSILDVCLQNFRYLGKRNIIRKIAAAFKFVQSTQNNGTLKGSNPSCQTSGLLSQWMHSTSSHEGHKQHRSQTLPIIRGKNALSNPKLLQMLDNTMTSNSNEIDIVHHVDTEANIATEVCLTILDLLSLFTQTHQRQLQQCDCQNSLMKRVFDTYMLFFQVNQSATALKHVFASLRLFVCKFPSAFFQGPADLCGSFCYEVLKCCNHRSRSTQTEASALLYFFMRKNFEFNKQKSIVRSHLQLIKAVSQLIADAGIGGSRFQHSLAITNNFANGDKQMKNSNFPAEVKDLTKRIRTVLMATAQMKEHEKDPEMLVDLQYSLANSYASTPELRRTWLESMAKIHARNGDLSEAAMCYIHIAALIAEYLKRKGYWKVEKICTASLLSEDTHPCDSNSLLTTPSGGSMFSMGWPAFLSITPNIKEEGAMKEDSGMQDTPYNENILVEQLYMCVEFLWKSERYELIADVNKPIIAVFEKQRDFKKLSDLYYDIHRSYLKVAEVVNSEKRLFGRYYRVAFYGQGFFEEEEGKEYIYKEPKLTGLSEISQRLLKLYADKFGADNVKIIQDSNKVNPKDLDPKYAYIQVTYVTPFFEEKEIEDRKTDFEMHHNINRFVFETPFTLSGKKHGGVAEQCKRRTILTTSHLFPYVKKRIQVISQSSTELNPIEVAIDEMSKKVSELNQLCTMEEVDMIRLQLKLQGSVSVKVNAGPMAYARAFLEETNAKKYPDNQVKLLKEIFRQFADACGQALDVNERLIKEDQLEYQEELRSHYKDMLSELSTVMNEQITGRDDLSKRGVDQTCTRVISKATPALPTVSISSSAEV

These are yes or no findings as the source states them, for the method shown. In cells and extracts the contact can be indirect. These calls come from enrichment with a bait or labelling near it, and not all partners need be listed.

For the substance “Thrombospondin-1 (from UniProt P07996 19-1170)”, the binding entry is recorded as “binds”.

Take “Myosin-9, non-muscle (from UniProt P35579 1-1960)”: the binding result was “binds”.

“Dedicator of cytokinesis protein 10 (from UniProt Q96BY6 1-2186)”: the binding result is reported as “binds”.

(Values after article PMC4062937.)
